Experimental data reported in US20210017275A1 (Alector, published 2021).
Changes are numbered by the printed parent chain. Results are given in words; binding and its absence hold for the method and conditions named. Some entries that bind do so weakly or less than the wild type. For some of these results: Tags and fused reporters may be left off the sequences shown.

T1: human Siglec-5 expressed on human primary cells (human) (UniProt O15389)
T1 sequence: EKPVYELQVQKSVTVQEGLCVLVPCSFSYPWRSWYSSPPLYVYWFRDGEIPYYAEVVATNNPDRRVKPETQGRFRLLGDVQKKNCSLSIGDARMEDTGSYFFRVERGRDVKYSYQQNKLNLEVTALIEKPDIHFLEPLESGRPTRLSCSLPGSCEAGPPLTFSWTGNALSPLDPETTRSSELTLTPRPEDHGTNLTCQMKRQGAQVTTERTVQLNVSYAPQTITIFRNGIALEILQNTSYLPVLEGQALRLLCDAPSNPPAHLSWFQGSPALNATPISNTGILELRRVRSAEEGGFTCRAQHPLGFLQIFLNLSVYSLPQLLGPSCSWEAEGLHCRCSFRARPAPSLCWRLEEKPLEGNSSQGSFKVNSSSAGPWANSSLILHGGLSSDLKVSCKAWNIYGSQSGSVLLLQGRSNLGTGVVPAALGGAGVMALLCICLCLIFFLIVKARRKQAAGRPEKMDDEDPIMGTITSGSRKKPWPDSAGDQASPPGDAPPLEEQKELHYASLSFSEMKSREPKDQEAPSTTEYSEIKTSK

T2: Human Siglec 5, Fc chimera (R&D Systems) (human) (UniProt O15389)
T2 sequence: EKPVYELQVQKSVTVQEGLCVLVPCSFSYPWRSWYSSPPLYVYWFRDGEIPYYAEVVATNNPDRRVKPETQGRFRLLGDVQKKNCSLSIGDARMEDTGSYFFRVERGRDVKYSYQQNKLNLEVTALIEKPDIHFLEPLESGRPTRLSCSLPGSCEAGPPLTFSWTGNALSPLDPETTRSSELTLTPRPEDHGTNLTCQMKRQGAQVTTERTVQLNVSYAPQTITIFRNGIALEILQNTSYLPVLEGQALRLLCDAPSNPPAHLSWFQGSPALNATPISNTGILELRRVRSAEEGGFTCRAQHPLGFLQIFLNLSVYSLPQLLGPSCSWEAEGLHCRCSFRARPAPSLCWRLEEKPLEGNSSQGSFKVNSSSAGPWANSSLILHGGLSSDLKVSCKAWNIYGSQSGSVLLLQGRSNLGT

T3: recombinant Siglec-14-Fc (human) (UniProt Q08ET2)
T3 sequence: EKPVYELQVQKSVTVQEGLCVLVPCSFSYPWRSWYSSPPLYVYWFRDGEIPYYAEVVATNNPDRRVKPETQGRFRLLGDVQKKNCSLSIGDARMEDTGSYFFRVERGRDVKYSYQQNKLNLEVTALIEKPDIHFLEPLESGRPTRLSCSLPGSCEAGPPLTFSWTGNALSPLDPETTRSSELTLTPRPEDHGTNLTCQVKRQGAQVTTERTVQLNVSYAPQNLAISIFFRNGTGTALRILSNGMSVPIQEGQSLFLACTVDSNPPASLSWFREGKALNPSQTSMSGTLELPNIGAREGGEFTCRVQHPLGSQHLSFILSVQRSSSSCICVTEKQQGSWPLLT

T4: Histidine-tagged human Siglec-5 (NovoProtein) (human) (UniProt O15389)
T4 sequence: T2 sequence

B1: anti-Siglec-5 monoclonal antibody 8C3 (antibody, IgG1, V domains shown)
VH: QVQLQQSGGGLVKPGTSVKLSCKASGYIFTEYIIHWVKQRSGQGLEWIGWFYPGIISIKYNEKFKDKATLTADKSSSTVYMELSRLTSEDSAVYFCAGHEGYDGAMDYWGQGTSVTVSS
VL: DVLMTQTPLSLPVSLGDQASISCRCSQSIVHSNGNTYLEWYLQKPGQSPKLLIYRVSNRFSGVPDRFSGSGSGTDFTLKISRVEAEDLGVYYCFQGSHVPWTFGGGTKLEIK
B2: anti-Siglec-5 monoclonal antibody 11C6 (antibody, IgG1, V domains shown)
VH: QVQLQQSGAELVKPGASVKLSCKASGYTFTEYTIHWVKQRSGQGLEWIGWFYPGSGSIKYNEKFKDKATLTAVKSSSTVYMEFSRLTSEDSAVYFCARQDYDGLGFAYWGQGTLVTVSA
VL: B1 VL with C25S, S28T, R55K
notes: also called 1106
B3: anti-Siglec-5 monoclonal antibody 8A1 (antibody, IgG1, V domains shown)
VH: EIQLQQSGPELVKPGASVKVSCKASDYAFTSYNIYWVKQSHGKSLEWIGYIDPYNGGTSYNQTFKGKATLTVDKSSSTAYMHLNSLTSEDSAVYYCAMKVGYEAMDYWGQGTSVTVSS
VL: DIVMTQSQKFMSTSVGDRVSVTCKASQNVGTYVAWYQQKPGQSPKALIYSASYRYSGVPDRFTGSGSGTDFTLNISNVQSEDLAEYFCQQFNSYPYTFGGGTKLEIK
B4: anti-Siglec-5 monoclonal antibody 11H3 (antibody, IgG1, V domains shown)
VH: B3 VH with E1Q, I2V
VL: B3 VL with V3Q, Y32N
B5: anti-Siglec-5 monoclonal antibody 2G5 (antibody, IgG1, V domains shown)
VH: EIQLQQSGPELVKPGASVKVSCKASGYSFTDYNMYWVKQSHGKSLEWIGYIDPYNGNTTYNQRFKGKATLTVDKSSSTAFMHLNSLTSEDAAVYYCATFYGFDGFAYWGQGSLVAVSA
VL: QAVVTQESALTTSPGETVTLTCRSSTGAVTTSNYANWVQEKPDHLFTGLIGTTNNRAPGVPARFSGSLIGDKAALTITGAQTEDEAIYFCALWYSNHLVFGGGTKLTVLG
B6: anti-Siglec-5 monoclonal antibody 5H2 (antibody, IgG1, V domains shown)
VH: EVQLQQSGPELVKPGASVKVSCKASGYSFTDYNMYWVKQSHGKSLEWIGYIDPYNGGTSYNQKFKGKATLTVDKSSSTAFMLLNSLTSEDSAVYYCALYYDYDGIPYWGQGTLVTVSA
VL: B3 VL with Y32N, Q37R, S56N, N74T, F91Y
B7: anti-Siglec-5 monoclonal antibody 10F9 (antibody, IgG1, V domains shown)
VH: B6 VH with V2I, D31G, L45F, N55T, K63R, L82H, V93I, Y99F, I105F
VL: B3 VL with G30D, Y32N, N74T, F91Y
B8: anti-Siglec-5 monoclonal antibody 7A5 (antibody, IgG1, V domains shown)
VH: B6 VH with V2I, S59T, L82H, Y94F, L98F, D101G, D103Y, I105V
VL: B3 VL with T5I, G30D, Y32N, N74T, F91Y, Y94F, Y96L, G100S
B9: anti-Siglec-5 monoclonal antibody 10B6 (antibody, IgG1, V domains shown)
VH: B6 VH with V2I, W47C, I48F, T58P, S59Y, L82H, L98F, D101G, D103Y, I105V
VL: B3 VL with Q27H, Y32S, A46S, N74T, F91Y, Y96L, G100S
B10: anti-Siglec-5 monoclonal antibody 9A5 (antibody, IgG1, V domains shown)
VH: QVQLQQSGPELVEPGASVKVSCKASGYAFTSYNMYWVKQSHGKSLEWIGYIDPYNGGTYYDQKFKGRATLTVDKSSSTAHMHLNSLTSEDSAVYYCVFFYEYDGFPYWGQGTLVTVSA
VL: DIVLTQSPTLMSASPGEKVTMTCSASSSVSYMYWYQQKPRSSPKPLIYLTSNLASGVPARFSGSGSGTSYSLTISSMEAEDAATYYCQQWSSNPLTFGAGTKLELK
B11: anti-Siglec-5 monoclonal antibody 9B1 (antibody, IgG1, V domains shown)
VH: B2 VH with V73D, F83L, D100E, Y101E, D102G, L104I, A107D, L114T, V115L, A119S
VL: B1 VL with P12L, C25S, R55K, N58I

Molecular target: T1, human Siglec-5 expressed on human primary cells (human)
Test: flow cytometry on human primary cells expressing Siglec-5

binding, binds:
B1

Molecular target: T2, Human Siglec 5, Fc chimera (R&D Systems) (human)
Test: ELISA on plate-coated Siglec-5-Fc; antibody at 1, 0.2 and 0.04 ug/mL

binding, binds:
B1

Molecular target: T3, recombinant Siglec-14-Fc (human)
Test: ELISA on plate-coated Siglec-14-Fc; antibody at 1, 0.2 and 0.04 ug/mL

binding, binds:
B2
B3
B4
B5
B6
B7
B8
B9
B1
B10
B11

Molecular target: T2, Human Siglec 5, Fc chimera (R&D Systems) (human)
Test: ELISA on plate-coated Siglec-5-Fc (1 ug/mL), antibody at 1 ug/ml, anti-mouse IgG-HRP, A450

binding, binds:
B1

Molecular target: T3, recombinant Siglec-14-Fc (human)
Test: ELISA on plate-coated Siglec-14-Fc (1 ug/mL), antibody at 1 ug/ml, anti-mouse IgG-HRP, A450

binding, binds:
B2
B3
B4
B5
B6
B7
B8
B9
B1
B10
B11

Molecular target: T2, Human Siglec 5, Fc chimera (R&D Systems) (human)
Test: ELISA on plate-coated Siglec-5-Fc (1 ug/mL), antibody at 0.2 ug/ml, anti-mouse IgG-HRP, A450

binding, binds:
B1

Molecular target: T3, recombinant Siglec-14-Fc (human)
Test: ELISA on plate-coated Siglec-14-Fc (1 ug/mL), antibody at 0.2 ug/ml, anti-mouse IgG-HRP, A450

binding, binds:
B2
B3
B4
B5
B6
B7
B8
B9
B1
B10
B11

Molecular target: T2, Human Siglec 5, Fc chimera (R&D Systems) (human)
Test: ELISA on plate-coated Siglec-5-Fc (1 ug/mL), antibody at 0.04 ug/ml, anti-mouse IgG-HRP, A450

binding, binds:
B1

Molecular target: T3, recombinant Siglec-14-Fc (human)
Test: ELISA on plate-coated Siglec-14-Fc (1 ug/mL), antibody at 0.04 ug/ml, anti-mouse IgG-HRP, A450

binding, binds:
B2
B3
B4
B5
B6
B7
B8
B9
B1
B10
B11

Molecular target: T1, human Siglec-5 expressed on human primary cells (human)
Test: flow cytometry on human primary monocytes, 10 ug/ml mAb plus labelled secondary antibody

binding, binds:
B1

Molecular target: T1, human Siglec-5 expressed on human primary cells (human)
Test: flow cytometry on human primary neutrophils, 10 ug/ml mAb plus labelled secondary antibody

binding, binds:
B1

Molecular target: T4, Histidine-tagged human Siglec-5 (NovoProtein) (human)
Test: SPR (Biacore T200), antibody captured on anti-mouse IgG chip, 15 nM His-tagged human Siglec-5 flowed, 120 s association, 300 s dissociation [Cont.]

binding, binds:
B1
